These results are taken from PMC8801411.

Chains of the proteins cited; added tags and fusions are not shown.
UniProt P22579: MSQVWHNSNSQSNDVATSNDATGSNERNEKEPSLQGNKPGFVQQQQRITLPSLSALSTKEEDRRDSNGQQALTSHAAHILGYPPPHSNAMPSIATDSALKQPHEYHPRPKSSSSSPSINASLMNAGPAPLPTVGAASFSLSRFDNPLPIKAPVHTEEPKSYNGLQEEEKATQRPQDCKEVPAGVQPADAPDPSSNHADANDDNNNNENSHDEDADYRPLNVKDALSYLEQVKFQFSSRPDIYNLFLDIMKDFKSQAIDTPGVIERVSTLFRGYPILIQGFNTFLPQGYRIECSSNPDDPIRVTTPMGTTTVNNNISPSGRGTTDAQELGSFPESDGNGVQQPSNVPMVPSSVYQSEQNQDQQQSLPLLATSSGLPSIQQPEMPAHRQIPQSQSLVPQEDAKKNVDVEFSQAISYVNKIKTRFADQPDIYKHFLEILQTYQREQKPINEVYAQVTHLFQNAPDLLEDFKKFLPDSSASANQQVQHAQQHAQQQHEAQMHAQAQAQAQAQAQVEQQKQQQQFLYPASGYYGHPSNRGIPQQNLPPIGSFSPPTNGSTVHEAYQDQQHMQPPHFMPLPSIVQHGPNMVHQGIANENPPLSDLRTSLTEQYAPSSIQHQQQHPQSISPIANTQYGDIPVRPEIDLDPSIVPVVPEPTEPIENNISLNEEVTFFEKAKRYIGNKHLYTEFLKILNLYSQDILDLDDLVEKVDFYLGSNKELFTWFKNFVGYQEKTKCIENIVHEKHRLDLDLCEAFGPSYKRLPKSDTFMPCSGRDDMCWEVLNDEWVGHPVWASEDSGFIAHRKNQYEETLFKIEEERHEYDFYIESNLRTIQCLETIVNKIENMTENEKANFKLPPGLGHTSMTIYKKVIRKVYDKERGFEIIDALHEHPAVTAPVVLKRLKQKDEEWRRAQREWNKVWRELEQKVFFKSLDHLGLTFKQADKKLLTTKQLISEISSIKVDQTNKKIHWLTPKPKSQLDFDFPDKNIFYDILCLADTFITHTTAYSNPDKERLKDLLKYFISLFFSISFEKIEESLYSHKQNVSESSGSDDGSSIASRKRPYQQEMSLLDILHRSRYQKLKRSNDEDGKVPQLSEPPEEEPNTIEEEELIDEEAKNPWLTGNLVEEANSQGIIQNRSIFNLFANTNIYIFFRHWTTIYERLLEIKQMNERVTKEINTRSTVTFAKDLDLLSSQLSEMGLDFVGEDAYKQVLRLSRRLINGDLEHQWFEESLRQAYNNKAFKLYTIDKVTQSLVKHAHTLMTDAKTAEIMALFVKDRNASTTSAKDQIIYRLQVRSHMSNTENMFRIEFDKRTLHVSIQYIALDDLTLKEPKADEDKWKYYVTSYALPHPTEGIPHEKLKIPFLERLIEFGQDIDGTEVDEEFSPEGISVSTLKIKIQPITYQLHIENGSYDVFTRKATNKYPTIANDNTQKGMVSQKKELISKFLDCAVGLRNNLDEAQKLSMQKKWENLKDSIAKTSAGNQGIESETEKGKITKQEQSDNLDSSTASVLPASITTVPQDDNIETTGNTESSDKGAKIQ

This assay addresses T1, GST-Gal80 (full-length) (S. cerevisiae) (UniProt P04387).
T1 sequence: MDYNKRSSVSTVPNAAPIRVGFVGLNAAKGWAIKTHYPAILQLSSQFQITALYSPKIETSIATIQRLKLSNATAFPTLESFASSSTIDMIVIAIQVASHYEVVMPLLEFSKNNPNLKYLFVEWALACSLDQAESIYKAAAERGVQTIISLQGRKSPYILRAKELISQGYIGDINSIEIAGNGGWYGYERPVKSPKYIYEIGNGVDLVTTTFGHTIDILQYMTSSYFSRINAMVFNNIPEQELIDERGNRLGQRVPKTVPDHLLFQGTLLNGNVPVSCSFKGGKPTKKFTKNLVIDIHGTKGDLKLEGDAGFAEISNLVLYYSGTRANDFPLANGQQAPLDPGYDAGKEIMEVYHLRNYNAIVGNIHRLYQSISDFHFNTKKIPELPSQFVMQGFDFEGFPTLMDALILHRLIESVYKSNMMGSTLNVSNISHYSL
The assay is described as follows: pull-down; GST-Gal80 (full-length) immobilised on GSH sepharose, incubated with yeast total protein extract containing HA3-Sin3; washing of intermediary stringency; elution with 10 mM free GSH; SDS-PAGE and blot with anti-HA-peroxidase conjugate; only the target purified.

These are yes or no findings as the source states them, for the method shown. In cells and extracts the contact can be indirect. Where a sequence is shown, tags or fusion partners need not be part of it.

With “HA3-tagged Sin3 (full-length) (from UniProt P22579 1-1536)”, the binding entry is reported as “no binding”.
